Assay results reported in PMC9105187.
These are yes or no findings as the source states them, for the method shown. Binding seen in cells or lysates may run through a third protein. Here binding means that the protein was enriched with, or labelled near, the bait; the list need not be complete. For some of these results: No binding means not detected with the bait.

Amino acid sequences for entries named in this document (tags omitted).
UniProt Q12983: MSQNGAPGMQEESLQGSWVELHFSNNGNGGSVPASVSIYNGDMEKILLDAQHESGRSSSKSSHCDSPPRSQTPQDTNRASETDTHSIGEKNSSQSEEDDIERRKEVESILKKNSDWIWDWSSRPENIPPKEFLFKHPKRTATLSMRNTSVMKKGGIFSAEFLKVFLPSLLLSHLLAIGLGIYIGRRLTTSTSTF

The binders below were run against Bcl-2 nineteen kilodalton interacting protein 3 (human) (human (endogenous in LV myocardium)) (UniProt Q12983) (assay: affinity purification with mass spectrometry; 500 ug lysate of human HFrEF LV myocardium (n = 3, taken at LVAD implantation) incubated with 10 ug mouse monoclonal BNIP3 antibody (Abcam ab10433); eluate on SDS-PAGE, in-gel trypsin digestion, nano-LC-MS/MS).

binding	Binder
binds	mt-2-oxoglutarate/malate carrier protein (human) (protein, UniProt Q02978 1-314) MAATASAGAGGIDGKPRTSPKSVKFLFGGLAGMGATVFVQPLDLVKNRMQLSGEGAKTREYKTSFHALTSILKAEGLRGIYTGLSAGLLRQATYTTTRLGIYTVLFERLTGADGTPPGFLLKAVIGMTAGATGAFVGTPAEVALIRMTADGRLPADQRRGYKNVFNALIRITREEGVLTLWRGCIPTMARAVVVNAAQLASYSQSKQFLLDSGYFSDNILCHFCASMISGLVTTAASMPVDIAKTRIQNMRMIDGKPEYKNGLDVLFKVVRYEGFFSLWKGFTPYYARLGPHTVLTFIFLEQMNKAYKRLFLSG

These binders were tested against Bcl-2 nineteen kilodalton interacting protein 3 (rat) (rat (endogenous in LV myocardium and adult cardiac myocytes)) (assay: affinity purification with mass spectrometry; 500 ug lysate of rat LV myocardium (Sham n = 3, pressure overload HFrEF n = 3) incubated with 10 ug mouse monoclonal BNIP3 antibody (Abcam ab10433); eluate on SDS-PAGE, in-gel trypsin digestion, nano-LC-MS/MS, label-free quantification).

binding	Binder
binds	mt-Lon protease homolog (rat) (protein, UniProt Q924S5 66-950) LWDAGSRGGSDETSEGGVEDGATASSGEGPVVTALAPMTVPDVFPHLPLIAISRNPVFPRFIKIVEVKNKKLVELLRRKVRLAQPYVGVFLKRDDNNESDVVESLDEIYHTGTFAQIHEMQDLGDKLRMIVTGHRRIHISRQLEVEPEGLEPEAENKQKSRRKLKRGKKEVGDELGAKPQLEMVTEATSDTSKEVLMVEVENVAHEDFQVTEEVKALTAEIVKTIRDIIALNPLYRESVLQMMQAGQRVVDNPIYLSDMGAALTGAESHELQDVLEETNILKRLYKALSLLKKEFELSKLQQRLGREVEEKIKQTHRKYLLQEQLKIIKKELGLEKDDKDAIEEKFRERLKELVVPKHVMDVVDEELSKLALLDNHSSEFNVTRNYLDWLTSIPWGRQSDENLDLARAQSVLEEDHYGMEDVKKRVLEFIAVSQLRGSTQGKILCFHGPPGVGKTSIARSIARALGREYFRFSVGGMTDVAEIKGHRRTYVGAMPGKIIQCLKKTKTENPLVLIDEVDKIGRGYQGDPSSALLELLDPEQNANFLDHYLDVPVDLSKVLFICTANVTDTIPEPLRDRMEMINVSGYVAQEKLAIAERYLVPQARTLCGLDESKAQLSATVLTLLIKQYCRESGVRNLQKQVEKVLRKAAYKIVSGEAQTVHVTPENLQDFVGKPVFTVERMYDVTPPGVVMGLAWTAMGGSTLFVETSLRRPQPSGSKEDKDGSLEVTGQLGDVMKESARIAYTFARAFLMEQDPENDFLVTSHIHLHVPEGATPKDGPSAGCTIVTALLSLALGQPVLQNLAMTGEVSLTGKVLPVGGIKEKTIAAKRAGVTCIILPAENRKDFSDLAPFITEGLEVHFVEHYRDIFRIAFPLREHQEALAVER
binds	mt-2-oxoisovalerate dehydrogenase subunit beta (protein, UniProt P35738 49-390) VAHFTFQPDPESLQYGQTQKMNLFQSITSALDNSLAKDPTAVIFGEDVAFGGVFRCTVGLRDKYGKDRVFNTPLCEQGIVGFGIGIAVTGATAIAEIQFADYIFPAFDQIVNEAAKYRYRSGDLFNCGSLTIRAPWGCVGHGALYHSQSPEAFFAHCPGIKVVIPRSPFQAKGLLLSCIEDKNPCIFFEPKILYRAAVEQVPVEPYKIPLSQAEVIQEGSDVTLVAWGTQVHVIREVASMAQEKLGVSCEVIDLRTIVPWDVDTVCKSVIKTGRLLISHEAPLTGGFASEISSTVQEECFLNLEAPISRVCGYDTPFPHIFEPFYIPDKWKCYDALRKMINY
binds	mt-2-oxoisovalerate dehydrogenase subunit alpha (protein, UniProt P11960 42-441) PSLDDKPQFPGASAEFVDKLEFIQPNVISGIPIYRVMDRQGQIINPSEDPHLPQEEVLKLYRSMTLLNTMDRILYESQRQGRISFYMTNYGEEGTHVGSAAALERTDLVFGQYREAGVLMYRDYPLELFMAQCYGNVSDPGKGRQMPVHYGCKERHFVTISSPLATQIPQAVGAAYAAKRANANQIVICYFGEGAASEGDAHAGFNFAATLECPIIFFCRNNGYAISTPTSEQYRGDGIAARGPGYGIMSIRVDGNDVFAVYNATKEARRRAVAENQPFLIEAMTYRIGHHSTSDDSSAYRSVDEVNYWDKQDHPISRLRQYLLNQGWWDEEQEKAWRKQSRKKVMEAFEQAERKLKPNPSLLFSDVYQEMPAQLRRQQESLARHLQTYGEHYPLDHFDK
binds	vinculin (protein, UniProt P85972 1-1066) MPVFHTRTIESILEPVAQQISHLVIMHEEGEVDGKAIPDLTAPVAAVQAAVSNLVRVGKETVQTTEDQILKRDMPPAFIKVENACTKLVQAAQMLQSDPYSVPARDYLIDGSRGILSGTSDLLLTFDEAEVRKIIRVCKGILEYLTVAEVVETMEDLVTYTKNLGPGMTKMAKMIDERQQELTHQEHRVMLVNSMNTVKELLPVLISAMKIFVTTKNSKNQGIEEALKNRNFTVGKMSAEINEIIRVLQLTSWDEDAWASKDTEAMKRALASIDSKLNQAKGWLRDPNASPGDAGEQAIRQILDEAGKVGELCAGKERREILGTCKMLGQMTDQVADLRARGQGASPVAMQKAQQVSQGLDVLTAKVENAARKLEAMTNSKQSIAKKIDAAQNWLADPNGGPEGEEQIRGALAEARKIAELCDDPKERDDILRSLGEIAALTSKLGDLRRQGKGDSPEARALAKQVATALQNLQTKTNRAVANSRPAKAAVHLEGKIEQAQRWIDNPTVDDRGVGQAAIRGLVAEGHRLANVMMGPYRQDLLAKCDRVDQLAAQLADLAARGEGESPQARALASQLQDSLKDLKTQMQEAMTQEVSDVFSDTTTPIKLLAVAATAPPDAPNREEVFDERAANFENHSGRLGATAEKAAAVGAANKSTVEGIQASVKTARELTPQVISAARILLRNPGNQAAYEHFETMKNQWIDNVEKMTGLVDEAIDTKSLLDASEEAIKKDLDKCKVAMANIQPQMLVAGATSIARRANRILLVAKREVENSEDPKFREAVKAASDELSKTISPMVMDAKAVAGNISDPGLQKSFLDSGYRILGAVAKVREAFQPQEPDFPPPPPDLEQLRLTDELAPPKPPLPEGEVPPPRPPPPEEKDEEFPEQKAGEVINQPMMMAARQLHDEARKWSSKGNDIIAAAKRMALLMAEMSRLVRGGSGTKRALIQCAKDIAKASDEVTRLAKEVAKQCTDKRIRTNLLQVCERIPTISTQLKILSTVKATMLGRTNISDEESEQATEMLVHNAQNLMQSVKETVREAEAASIKIRTDAGFTLRWVRKTPWYQ
no binding	TIMM9 (protein, UniProt Q9WV97 1-89) MAAQIPESDQIKQFKEFLGTYNKLTETCFLDCVKDFTTREVKPEEVTCSEHCLQKYLKMTQRISMRFQEYHIQQNEALAAKAGLLGQPR
no binding	TIMM8b (protein, UniProt P62078 1-83) MAELGEADEAELQRLVAAEQQKAQFTAQVHHFMELCWDKCVEKPGSRLDSRTENCLSSCVDRFIDTTLAITGRFAQIVQKGGQ
binds	mt-phosphate carrier protein (rat) (protein, UniProt P16036 45-356) AVEGYSCEFGSMKYYALCGFGGVLSCGLTHTAVVPLDLVKCRMQVDPQKYKGIFNGFSITLKEDGVRGLAKGWAPTLIGYSMQGLCKFGFYEVFKALYSNILGEENTYLWRTSLYLAASASAEFFADIALAPMEAAKVRIQTQPGYANTLREAVPKMYKEEGLNAFYKGVAPVWMRQIPYTMMKFACFERTVEALYKFVVPKPRSECTKAEQLVVTFVAGYIAGVFCAIVSHPADSVVSVLNKEKGSTASQVLQRLGFRGVWKGLFARIIMIGTLTALQWFIYDSVKVYFRLPRPPPPEMPESLKKKLGLTE
binds	glutathione S-transferase kappa 1 (protein, UniProt P24473 1-226) MGPAPRVLELFYDVLSPYSWLGFEVLCRYQHLWNIKLKLRPALLAGIMKDSGNQPPAMVPHKGQYILKEIPLLKQLFQVPMSVPKDFFGEHVKKGTVNAMRFLTAVSMEQPEMLEKVSRELWMRIWSRDEDITESQNILSAAEKAGMATAQAQHLLNKISTELVKSKLRETTGAACKYGAFGLPTTVAHVDGKTYMLFGSDRMELLAYLLGEKWMGPVPPTLNARL
binds	mt-proton/calcium exchanger protein LETM1 (rat) (protein, UniProt Q5XIN6 115-739) EDSMIEKSLKSLKDKNKKLEEGGPVYSPPAQVVVKKSLGQKILDELKHYYHGFRLLWIDTKIAARMLWRILNGHTLTRRERRQFLRICADLFRLVPFLVFVVVPFMEFLLPVVVKLFPNMLPSTFETQSIKEERLKKELRVKLELAKFLQDTIEEMALKNKAAKGNATKDFSAFFQKIRETGERPSNEEIMRFSKLFEDELTLDNLTRPQLVALCKLLELQSIGTNNFLRFQLTMRLRSIKADDKLISEEGVDSLTVKELQAACRARGMRALGVTEDRLKGQLKQWLDLHLYHEIPTSLLILSRAMYLPDTLSPADQLKSTLQTLPEIVAKEAQVKAAEVEGEQVDNKAKLEATLQEEAAIQQEHLEELKRAAETAKDIQPEVAEATVPGRPGAELQPKMVDVIPPSEILKDTAPVLEGLKGEEITKEEIDILSDACSKLKEQKKSLTKEKEELELLKEDVQDYSEDLQEIKKELSKTGDEKYIEESTASKRLSKRVQQMIGQIDGLITQLETTQQNGKLDPAAASSPTGESVISVDELISAMKQIKHIPEHKLISLTSALDENKDGNINIDDLVKVIDLVNKEDVQISTTQVAEIVATLEKEEKVEEKEKAKEKAEKEAAEVKN
binds	SAMM50 (rat) (protein, UniProt Q6AXV4 1-469) MGTVHARSLEPLPSSGTDFGALGEEAEFVEVEPEAKQEILENKDVVVQHVHFDGLERTKDDIIICEIGEVFKAKNLIEVMRRSHEAREKLLRLGIFRQVDVLIDTCHGEDALPNGLDVTFEVTELRRLTGSYNTMVGNNEGSMVLGLKLPNLLGRAEKVTFQFSYGTKETSYGLSFFKPQPGNFEKNFSVNLYKVTGQFPWSSLRETDRGVSAEYSFPLCKTSHTVKWEGVWRELGCLARTASFAVRKESGHSLKSSLSHAMVIDSRNSSILPRRGALLKVNQELAGYTGGDVSFIKEDFELQLNKPLVLDSVFSTSLWGGMLVPIGDKLSSIADRFYLGGPTSVRGFSMHSIGPQSEGDYLGGEAYWAGGLHLYTPLPFRPGQGGFGELFRTHFFLNAGNLCNLNYGEGPRAHIRKLAECIRWSYGAGIVLRLGNIARLELNYCIPMGVQRGDRICDGVQFGAGIRFL
binds	ADP/ATP translocase isoform 1 (rat) (protein, UniProt Q05962 1-298) MGDQALSFLKDFLAGGIAAAVSKTAVAPIERVKLLLQVQHASKQISAEKQYKGIIDCVVRIPKEQGFLSFWRGNLANVIRYFPTQALNFAFKDKYKQIFLGGVDRHKQFWRYFAGNLASGGAAGATSLCFVYPLDFARTRLAADVGKGSSQREFNGLGDCLTKIFKSDGLKGLYQGFSVSVQGIIIYRAAYFGVYDTAKGMLPDPKNVHIIVSWMIAQSVTAVAGLVSYPFDTVRRRMMMQSGRKGADIMYTGTVDCWRKIAKDEGRKAFFKGAWSNVLRGMGGAFVLVLYDEIKKYV
binds	TOMM22 (rat) (protein, UniProt Q75Q41 1-142) MAAAVAAAGAGEPLSPEELVPKAEAEKAEEDLEEDDDDELDETLSERLWGLTEMFPERVRSAAGATFDLSLFVAQKMYRFSRAALWIGTTSFMILVLPVVFETEKLQMEQQQQLQQRQILLGPNTGLSGGMPGALPPLPGKI
